Reference: paper PMC9440122
No constants are given. Whether binding was seen depends on the method and setting. Binding seen in cells or lysates may run through a third protein. For some assays here: A result given as binding can be weak or reduced; the word gives no strength. For some assays here: Tags and fused reporters may be left off the sequences shown.

Amino acid sequences for entries named in this document (tags omitted).
UniProt Q80TR8: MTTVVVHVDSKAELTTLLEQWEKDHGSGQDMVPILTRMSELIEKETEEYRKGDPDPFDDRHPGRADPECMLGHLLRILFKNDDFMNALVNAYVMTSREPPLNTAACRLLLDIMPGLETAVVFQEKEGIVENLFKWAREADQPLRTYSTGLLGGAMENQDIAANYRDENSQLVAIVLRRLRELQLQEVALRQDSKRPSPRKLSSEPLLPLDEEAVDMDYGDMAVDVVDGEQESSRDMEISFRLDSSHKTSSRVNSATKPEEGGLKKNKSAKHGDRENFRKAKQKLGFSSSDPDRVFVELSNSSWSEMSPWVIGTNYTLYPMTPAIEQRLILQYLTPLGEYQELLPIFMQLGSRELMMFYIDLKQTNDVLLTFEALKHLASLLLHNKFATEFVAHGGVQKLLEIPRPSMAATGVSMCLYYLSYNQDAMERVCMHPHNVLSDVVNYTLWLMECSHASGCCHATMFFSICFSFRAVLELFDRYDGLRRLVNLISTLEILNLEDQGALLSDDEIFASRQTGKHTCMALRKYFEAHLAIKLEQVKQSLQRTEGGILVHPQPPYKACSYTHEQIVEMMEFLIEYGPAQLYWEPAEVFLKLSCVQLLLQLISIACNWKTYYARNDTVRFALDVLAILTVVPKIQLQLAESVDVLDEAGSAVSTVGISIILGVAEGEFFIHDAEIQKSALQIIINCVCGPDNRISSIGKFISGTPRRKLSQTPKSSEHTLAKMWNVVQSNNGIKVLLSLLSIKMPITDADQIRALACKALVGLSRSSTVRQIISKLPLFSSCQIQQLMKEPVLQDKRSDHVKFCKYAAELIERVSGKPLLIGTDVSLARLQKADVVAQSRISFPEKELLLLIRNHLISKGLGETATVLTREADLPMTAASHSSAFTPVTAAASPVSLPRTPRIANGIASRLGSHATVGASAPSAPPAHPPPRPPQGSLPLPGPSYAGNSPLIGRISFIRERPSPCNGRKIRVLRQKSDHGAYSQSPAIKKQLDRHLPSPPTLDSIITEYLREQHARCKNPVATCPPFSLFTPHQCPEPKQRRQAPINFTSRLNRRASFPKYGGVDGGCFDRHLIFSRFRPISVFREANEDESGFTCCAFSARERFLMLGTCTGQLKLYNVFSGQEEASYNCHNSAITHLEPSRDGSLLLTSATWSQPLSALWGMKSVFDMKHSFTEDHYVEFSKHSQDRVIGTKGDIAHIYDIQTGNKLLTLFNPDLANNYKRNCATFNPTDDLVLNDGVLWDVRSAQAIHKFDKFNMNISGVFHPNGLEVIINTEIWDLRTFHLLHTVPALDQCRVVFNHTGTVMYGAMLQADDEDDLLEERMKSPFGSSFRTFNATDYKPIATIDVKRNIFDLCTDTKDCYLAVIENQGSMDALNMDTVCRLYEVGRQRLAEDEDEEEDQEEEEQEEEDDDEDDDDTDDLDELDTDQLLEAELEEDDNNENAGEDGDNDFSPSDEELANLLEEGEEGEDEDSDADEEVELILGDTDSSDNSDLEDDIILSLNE

Tests used:
[1] = molecular target: T1, GFP-tagged wild-type Uhrf1 (UniProt Q8VDF2); assay: condition: only cells treated with pevonedistat (NAE inhibitor) for 24 h; co-IP; as a1, HEK293-EBNA cells transfected with GFP-Uhrf1 and mcherry-Tet1-CD and treated with the NAE inhibitor pevonedistat for 24 h
T1 sequence: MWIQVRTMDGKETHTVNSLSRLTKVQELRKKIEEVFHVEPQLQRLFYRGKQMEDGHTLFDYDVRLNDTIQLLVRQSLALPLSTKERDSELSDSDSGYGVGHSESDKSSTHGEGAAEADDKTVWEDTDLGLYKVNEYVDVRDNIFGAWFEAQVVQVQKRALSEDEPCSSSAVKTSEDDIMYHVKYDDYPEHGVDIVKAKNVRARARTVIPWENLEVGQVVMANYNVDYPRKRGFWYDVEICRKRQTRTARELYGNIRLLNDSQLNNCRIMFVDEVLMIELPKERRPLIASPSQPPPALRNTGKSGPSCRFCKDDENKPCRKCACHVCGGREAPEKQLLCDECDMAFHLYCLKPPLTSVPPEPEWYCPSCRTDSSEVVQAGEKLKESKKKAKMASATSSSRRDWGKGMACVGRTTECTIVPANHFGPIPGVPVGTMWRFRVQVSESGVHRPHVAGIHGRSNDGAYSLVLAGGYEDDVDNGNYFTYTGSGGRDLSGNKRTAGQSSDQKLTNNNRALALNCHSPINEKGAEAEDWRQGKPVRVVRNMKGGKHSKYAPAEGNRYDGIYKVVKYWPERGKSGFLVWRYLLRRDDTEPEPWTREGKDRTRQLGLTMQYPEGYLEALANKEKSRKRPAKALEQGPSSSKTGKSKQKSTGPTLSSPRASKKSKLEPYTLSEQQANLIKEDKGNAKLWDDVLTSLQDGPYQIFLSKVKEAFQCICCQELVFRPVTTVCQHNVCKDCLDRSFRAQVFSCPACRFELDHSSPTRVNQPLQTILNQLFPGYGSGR

[2] = molecular target: T1, GFP-tagged wild-type Uhrf1; assay: co-IP; HEK293-EBNA cells co-transfected (or prey endogenous); lysate in 20 mM Tris-HCl pH 8, 150 mM NaCl, 0.5 mM EDTA, 0.5% NP-40; GFP-tagged bait held on GFP-binding nanobody (GBP) beads, 4 °C, 90 min; western blot; untreated or DMSO control cells
[3] = molecular target: GFP-tagged Uhrf1 SRA domain (UniProt Q8VDF2); assay: as above
GFP-tagged VprBP (mouse) = GFP-tagged VprBP (mouse) (UniProt Q80TR8); assay: as above
[4] = molecular target: GFP-tagged Uhrf1 RING domain (UniProt Q8VDF2); assay: as above

- binding [1]: no binding
- binding [2]: binds
- binding [3]: binds
- binding (GFP-tagged VprBP (mouse)): binds
- binding [4]: binds
Substance: mcherry-tagged Tet1 catalytic domain (from UniProt Q3URK3-1) (domain or fragment)
